From PMC7710275

By UniProt entry, the sequences of proteins in these tests, tags left out. Where a name states a change or a piece, a line headed by the entry shows the natural chain unless it says otherwise.
UniProt Q9H4A3: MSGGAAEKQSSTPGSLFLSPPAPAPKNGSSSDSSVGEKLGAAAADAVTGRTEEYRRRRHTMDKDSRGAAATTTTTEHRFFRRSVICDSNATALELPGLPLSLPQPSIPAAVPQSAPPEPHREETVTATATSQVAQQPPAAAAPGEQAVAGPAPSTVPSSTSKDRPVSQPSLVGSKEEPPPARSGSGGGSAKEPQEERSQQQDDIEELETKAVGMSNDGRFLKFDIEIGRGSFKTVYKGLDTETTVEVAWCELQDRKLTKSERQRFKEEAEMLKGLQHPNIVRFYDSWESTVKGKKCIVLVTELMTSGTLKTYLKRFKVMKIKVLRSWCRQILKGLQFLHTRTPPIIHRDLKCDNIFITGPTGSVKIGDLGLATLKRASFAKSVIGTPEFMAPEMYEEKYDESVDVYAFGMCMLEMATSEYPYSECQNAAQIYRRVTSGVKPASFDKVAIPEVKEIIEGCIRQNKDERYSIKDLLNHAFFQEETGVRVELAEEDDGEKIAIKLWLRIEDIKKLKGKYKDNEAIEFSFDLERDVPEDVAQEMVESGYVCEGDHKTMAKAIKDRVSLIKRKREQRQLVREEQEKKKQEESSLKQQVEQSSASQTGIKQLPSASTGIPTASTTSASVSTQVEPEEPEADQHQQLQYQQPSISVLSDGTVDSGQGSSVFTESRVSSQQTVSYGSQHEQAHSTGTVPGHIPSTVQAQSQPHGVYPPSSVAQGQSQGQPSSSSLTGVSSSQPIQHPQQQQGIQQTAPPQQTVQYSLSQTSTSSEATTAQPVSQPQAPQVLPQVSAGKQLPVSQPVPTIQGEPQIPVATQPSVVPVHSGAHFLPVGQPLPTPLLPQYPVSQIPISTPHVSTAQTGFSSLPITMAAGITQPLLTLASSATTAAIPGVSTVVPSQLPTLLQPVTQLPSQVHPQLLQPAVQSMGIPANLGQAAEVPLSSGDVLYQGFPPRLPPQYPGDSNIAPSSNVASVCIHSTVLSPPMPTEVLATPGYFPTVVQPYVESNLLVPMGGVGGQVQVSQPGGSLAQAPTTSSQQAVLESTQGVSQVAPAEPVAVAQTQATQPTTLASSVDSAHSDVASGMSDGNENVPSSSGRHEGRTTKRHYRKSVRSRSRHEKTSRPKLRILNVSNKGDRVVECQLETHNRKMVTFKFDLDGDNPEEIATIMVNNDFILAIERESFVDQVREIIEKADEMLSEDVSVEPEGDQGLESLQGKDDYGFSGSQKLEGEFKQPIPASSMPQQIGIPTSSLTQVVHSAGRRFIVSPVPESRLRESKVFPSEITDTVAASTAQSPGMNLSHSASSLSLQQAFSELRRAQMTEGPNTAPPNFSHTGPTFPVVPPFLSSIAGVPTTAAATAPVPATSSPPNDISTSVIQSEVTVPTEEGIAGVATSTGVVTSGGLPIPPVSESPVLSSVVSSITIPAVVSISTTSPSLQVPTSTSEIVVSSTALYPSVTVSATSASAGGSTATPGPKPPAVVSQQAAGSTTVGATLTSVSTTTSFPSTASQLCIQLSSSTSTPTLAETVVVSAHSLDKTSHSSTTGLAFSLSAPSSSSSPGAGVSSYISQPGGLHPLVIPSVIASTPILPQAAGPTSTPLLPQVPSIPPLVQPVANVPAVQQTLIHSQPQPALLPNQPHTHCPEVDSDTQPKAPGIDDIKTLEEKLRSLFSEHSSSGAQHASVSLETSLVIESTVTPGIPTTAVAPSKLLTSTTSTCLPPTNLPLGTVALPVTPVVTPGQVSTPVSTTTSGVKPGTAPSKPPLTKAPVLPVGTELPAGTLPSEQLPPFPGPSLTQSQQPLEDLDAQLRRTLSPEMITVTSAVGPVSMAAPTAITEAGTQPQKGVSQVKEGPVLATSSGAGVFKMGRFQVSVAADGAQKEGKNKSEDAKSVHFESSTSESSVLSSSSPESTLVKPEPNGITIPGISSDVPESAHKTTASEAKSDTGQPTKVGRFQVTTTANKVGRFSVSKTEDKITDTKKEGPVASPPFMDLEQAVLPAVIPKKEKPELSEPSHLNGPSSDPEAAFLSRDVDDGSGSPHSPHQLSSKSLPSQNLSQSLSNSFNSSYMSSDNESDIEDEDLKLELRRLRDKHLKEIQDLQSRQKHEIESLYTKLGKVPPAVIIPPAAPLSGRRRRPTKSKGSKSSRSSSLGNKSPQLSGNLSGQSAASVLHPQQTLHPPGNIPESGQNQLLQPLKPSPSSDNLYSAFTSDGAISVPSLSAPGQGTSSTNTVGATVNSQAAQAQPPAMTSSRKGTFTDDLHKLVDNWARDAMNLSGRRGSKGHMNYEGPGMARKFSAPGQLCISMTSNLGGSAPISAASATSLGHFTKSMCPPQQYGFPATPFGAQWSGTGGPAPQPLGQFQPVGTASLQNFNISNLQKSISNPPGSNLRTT
UniProt P30153: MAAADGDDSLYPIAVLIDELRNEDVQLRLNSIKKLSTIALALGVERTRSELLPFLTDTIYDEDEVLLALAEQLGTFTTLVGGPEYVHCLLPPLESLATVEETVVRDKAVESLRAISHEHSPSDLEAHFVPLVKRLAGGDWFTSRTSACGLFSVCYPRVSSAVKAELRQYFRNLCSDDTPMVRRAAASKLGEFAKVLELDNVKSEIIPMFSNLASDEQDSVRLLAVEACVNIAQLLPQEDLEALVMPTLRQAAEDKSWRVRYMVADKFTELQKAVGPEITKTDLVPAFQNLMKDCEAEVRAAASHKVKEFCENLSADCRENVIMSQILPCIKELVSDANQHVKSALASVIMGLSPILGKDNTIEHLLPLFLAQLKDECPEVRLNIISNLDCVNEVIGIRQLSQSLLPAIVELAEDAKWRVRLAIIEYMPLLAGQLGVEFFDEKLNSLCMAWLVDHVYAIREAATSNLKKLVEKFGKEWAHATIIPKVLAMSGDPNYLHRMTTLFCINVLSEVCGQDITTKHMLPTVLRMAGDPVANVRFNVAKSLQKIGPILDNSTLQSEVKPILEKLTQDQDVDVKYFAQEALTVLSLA

Target: yellow fluorescent protein-tagged (YFP-tagged) WNK1 (UniProt Q9H4A3)
Assay: co-IP; HEC1A cells transfected with c4161 (YFP-WNK1) or cYFP for 48 hours; lysis in 50 mM Tris pH 8.0, 400 mM NaCl, 0.1% NP-40, 0.5 mM DTT; YFP captured on anti-GFP resin (YFP nanobody), 1 hour at 4°C; PPP2R1A detected by Western blot

- binding: binds
Substance: PPP2R1A, the alpha isoform of the scaffold subunit A of PP2A (from UniProt P30153 1-589)

Results are given in words; binding and its absence hold for the method and conditions named. In cells and extracts the contact can be indirect. Binding can be weak; no strength is given.
